Results are given in words; binding and its absence hold for the method and conditions named. Binding seen in cells or lysates may run through a third protein. Some results given as binding are weak or reduced against the parent protein; the word gives no strength.
Biological target: Kinesin family member 3A (mouse (endogenous in ovary)) (UniProt P28741)
Assay: co-IP; rabbit anti-KIF3A antibody on Dynabeads Protein G, incubated with lysate of 6 mouse ovaries for 6 h at 4 °C, washed three times, eluted; partners detected by western blot

By UniProt entry, the sequences of proteins in these tests, tags left out.
UniProt P28741: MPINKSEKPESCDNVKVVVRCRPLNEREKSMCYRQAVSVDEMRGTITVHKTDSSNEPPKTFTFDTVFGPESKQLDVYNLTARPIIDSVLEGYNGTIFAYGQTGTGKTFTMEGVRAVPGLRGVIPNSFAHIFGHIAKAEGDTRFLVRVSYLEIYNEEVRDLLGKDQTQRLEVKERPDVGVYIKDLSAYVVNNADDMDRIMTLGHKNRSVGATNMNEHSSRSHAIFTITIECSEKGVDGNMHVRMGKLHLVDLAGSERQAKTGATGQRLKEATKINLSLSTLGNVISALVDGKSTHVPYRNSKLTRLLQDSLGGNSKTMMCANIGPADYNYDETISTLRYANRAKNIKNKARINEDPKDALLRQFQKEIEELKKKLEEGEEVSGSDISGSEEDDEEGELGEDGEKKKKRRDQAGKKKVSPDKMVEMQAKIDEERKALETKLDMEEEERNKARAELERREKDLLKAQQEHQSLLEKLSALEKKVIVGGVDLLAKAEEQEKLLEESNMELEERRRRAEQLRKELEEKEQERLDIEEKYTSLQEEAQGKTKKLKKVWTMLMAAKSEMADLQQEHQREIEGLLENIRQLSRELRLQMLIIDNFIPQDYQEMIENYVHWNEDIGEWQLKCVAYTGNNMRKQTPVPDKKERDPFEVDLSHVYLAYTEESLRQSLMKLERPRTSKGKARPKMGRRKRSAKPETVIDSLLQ
UniProt E9Q7G0: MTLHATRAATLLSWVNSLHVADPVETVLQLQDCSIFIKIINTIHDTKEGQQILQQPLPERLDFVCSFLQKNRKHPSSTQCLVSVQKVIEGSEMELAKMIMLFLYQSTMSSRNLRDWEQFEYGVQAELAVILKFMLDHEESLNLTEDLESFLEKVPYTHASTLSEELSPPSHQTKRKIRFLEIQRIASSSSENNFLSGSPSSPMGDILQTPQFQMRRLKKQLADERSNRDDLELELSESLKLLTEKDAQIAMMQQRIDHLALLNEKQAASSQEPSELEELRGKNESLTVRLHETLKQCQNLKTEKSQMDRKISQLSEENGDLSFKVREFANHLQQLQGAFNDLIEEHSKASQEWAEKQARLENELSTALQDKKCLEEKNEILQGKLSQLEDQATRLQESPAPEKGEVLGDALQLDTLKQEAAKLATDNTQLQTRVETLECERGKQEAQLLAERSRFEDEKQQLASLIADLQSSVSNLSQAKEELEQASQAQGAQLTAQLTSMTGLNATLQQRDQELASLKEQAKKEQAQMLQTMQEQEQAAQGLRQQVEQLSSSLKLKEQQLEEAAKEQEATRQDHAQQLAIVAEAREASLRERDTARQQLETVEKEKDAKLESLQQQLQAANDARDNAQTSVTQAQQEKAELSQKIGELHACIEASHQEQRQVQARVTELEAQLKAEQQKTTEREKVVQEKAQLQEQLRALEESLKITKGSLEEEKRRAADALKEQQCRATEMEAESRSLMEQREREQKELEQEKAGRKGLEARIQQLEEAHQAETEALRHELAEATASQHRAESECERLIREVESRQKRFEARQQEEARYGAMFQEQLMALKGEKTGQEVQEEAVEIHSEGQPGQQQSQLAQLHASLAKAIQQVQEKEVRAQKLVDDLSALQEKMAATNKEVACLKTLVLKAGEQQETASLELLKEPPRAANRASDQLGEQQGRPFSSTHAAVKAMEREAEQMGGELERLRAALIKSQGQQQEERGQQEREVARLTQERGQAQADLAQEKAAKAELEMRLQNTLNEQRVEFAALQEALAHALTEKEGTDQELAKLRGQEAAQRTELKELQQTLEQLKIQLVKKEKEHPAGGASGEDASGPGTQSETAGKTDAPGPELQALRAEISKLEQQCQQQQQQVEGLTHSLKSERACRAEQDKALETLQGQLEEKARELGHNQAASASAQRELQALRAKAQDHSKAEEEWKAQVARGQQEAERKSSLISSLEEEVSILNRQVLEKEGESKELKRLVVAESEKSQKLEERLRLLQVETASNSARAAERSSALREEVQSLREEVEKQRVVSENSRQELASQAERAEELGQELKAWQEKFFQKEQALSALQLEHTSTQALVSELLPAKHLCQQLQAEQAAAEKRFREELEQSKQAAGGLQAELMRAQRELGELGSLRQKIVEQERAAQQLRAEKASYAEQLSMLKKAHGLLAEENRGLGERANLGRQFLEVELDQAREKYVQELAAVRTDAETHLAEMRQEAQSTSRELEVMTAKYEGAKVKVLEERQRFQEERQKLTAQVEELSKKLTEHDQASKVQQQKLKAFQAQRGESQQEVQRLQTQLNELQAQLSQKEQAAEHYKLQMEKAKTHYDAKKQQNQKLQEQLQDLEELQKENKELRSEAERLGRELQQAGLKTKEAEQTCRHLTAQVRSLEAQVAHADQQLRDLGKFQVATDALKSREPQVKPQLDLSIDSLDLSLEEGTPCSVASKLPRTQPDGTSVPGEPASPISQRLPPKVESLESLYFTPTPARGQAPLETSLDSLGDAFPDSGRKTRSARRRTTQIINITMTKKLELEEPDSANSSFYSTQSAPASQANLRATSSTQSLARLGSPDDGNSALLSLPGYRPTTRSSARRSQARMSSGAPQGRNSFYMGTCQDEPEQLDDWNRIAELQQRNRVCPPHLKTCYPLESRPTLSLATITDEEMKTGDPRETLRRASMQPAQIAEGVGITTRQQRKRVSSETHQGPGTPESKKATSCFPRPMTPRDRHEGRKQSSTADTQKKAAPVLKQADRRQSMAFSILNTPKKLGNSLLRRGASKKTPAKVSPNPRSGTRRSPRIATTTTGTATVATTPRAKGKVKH

Substance: nuclear mitotic apparatus protein (from UniProt E9Q7G0 1-2094)
- binding: binds

Source: publication PMC11001723
